The source of these data is publication PMC11253597.

Results are given in words; binding and its absence hold for the method and conditions named. Binding seen in cells or lysates may run through a third protein. For some assays here: Sequences can lack the tags named with a protein.

The target in experiment [1] is T1, GFP::SNTB2^GLGI4A (human) (UniProt Q13425).
T1 sequence: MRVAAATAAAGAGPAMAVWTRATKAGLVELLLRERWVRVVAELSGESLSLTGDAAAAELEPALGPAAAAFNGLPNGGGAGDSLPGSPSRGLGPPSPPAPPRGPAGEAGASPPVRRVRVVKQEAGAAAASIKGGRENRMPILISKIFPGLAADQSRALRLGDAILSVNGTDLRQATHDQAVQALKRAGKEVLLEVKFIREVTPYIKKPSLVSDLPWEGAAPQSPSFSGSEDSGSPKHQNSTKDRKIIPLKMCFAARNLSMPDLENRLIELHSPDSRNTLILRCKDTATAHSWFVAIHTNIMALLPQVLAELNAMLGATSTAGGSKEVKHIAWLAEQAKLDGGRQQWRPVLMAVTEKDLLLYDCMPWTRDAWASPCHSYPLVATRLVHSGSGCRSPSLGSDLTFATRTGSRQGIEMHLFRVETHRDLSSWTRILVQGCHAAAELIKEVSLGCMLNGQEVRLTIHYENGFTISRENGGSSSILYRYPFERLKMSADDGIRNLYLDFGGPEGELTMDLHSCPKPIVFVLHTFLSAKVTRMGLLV
Description: co-IP; GFP-tagged β-2-syntrophin (GFP::SNTB2) variants co-expressed with mCherry::SseM in SNTB2 KO1 HEK293 cells; GFP-trap immunoprecipitation, immunoblot. In general terms: A western blot detects proteins with antibodies after separation by electrophoresis.

For experiment [2], the target named is T2, GFP::SNTB2^H176V (human) (UniProt Q13425).
T2 sequence: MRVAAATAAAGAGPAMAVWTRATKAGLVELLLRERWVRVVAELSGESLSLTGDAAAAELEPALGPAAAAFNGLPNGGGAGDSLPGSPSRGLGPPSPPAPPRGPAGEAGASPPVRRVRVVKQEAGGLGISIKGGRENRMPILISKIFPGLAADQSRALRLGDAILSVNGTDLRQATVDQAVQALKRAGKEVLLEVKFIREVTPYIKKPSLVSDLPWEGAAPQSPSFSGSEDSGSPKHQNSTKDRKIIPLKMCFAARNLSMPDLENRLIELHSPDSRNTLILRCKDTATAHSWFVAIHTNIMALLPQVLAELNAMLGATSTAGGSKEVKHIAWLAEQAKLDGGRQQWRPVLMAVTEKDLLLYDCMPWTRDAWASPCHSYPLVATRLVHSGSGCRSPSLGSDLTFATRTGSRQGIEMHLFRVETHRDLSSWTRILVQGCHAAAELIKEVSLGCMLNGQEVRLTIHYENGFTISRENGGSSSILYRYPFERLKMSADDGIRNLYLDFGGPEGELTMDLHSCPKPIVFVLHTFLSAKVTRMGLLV
The experiment is described as above.

Experiment [3] concerns the target T3, GFP::SNTB2^H176Y (human) (UniProt Q13425).
T3 sequence: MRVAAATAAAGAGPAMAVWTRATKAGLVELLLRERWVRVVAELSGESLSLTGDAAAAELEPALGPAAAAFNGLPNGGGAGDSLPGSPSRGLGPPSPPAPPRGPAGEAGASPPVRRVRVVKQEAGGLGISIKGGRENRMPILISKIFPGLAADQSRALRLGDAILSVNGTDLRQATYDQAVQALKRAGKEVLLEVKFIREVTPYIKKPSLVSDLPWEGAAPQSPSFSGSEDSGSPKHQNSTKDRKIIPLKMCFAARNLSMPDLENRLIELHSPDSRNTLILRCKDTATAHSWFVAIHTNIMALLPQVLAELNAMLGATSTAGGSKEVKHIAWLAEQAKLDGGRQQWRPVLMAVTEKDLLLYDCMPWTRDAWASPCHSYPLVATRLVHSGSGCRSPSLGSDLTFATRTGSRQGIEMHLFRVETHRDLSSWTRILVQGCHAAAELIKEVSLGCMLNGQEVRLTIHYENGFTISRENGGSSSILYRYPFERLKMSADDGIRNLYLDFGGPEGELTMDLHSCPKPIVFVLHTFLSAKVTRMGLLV
The experiment is described as above.

Experiment [4] deals with GFP::SseM-HA (Salmonella enterica serovar Typhimurium strain 12023). Description: co-IP; GFP-trap agarose on lysates of HEK293 cells transiently transfected (16 h) with GFP-tagged SseM variants; immunoblot for endogenous β-2-syntrophin and α-dystrobrevin.
The target in experiment [5] is GFP::SseM^RE2A (Salmonella enterica serovar Typhimurium strain 12023). Described as above.

Regarding “mCherry::SseM (Salmonella enterica serovar Typhimurium)”, the binding entry in experiment [1], in experiment [2] and in experiment [3] was “no binding” throughout.

B1: α-dystrobrevin (protein, UniProt Q9Y4J8 1-743)
chain: MIEDSGKRGNTMAERRQLFAEMRAQDLDRIRLSTYRTACKLRFVQKKCNLHLVDIWNVIEALRENALNNLDPNTELNVSRLEAVLSTIFYQLNKRMPTTHQIHVEQSISLLLNFLLAAFDPEGHGKISVFAVKMALATLCGGKIMDKLRYIFSMISDSSGVMVYGRYDQFLREVLKLPTAVFEGPSFGYTEQSARSCFSQQKKVTLNGFLDTLMSDPPPQCLVWLPLLHRLANVENVFHPVECSYCHSESMMGFRYRCQQCHNYQLCQDCFWRGHAGGSHSNQHQMKEYTSWKSPAKKLTNALSKSLSCASSREPLHPMFPDQPEKPLNLAHIVDTWPPRPVTSMNDTLFSHSVPSSGSPFITRSSPPKDSEVEQNKLLARAAPAFLKGKGIQYSLNVADRLADEHVLIGLYVNMLRNNPSCMLESSNRLDEEHRLIARYAARLAAESSSSQPPQQRSAPDISFTIDANKQQRQLIAELENKNREILQEIQRLRLEHEQASQPTPEKAQQNPTLLAELRLLRQRKDELEQRMSALQESRRELMVQLEGLMKLLKTQGAGSPRSSPSHTISRPIPMPIRSASACSTPTHTPQDSLTGVGGDVQEAFAQSSRRNLRNDLLVAADSITNTMSSLVKELNSEVGSETESNVDSEFARTQFEDLVPSPTSEKAFLAQIHARKPGYIHSGATTSTMRGDMVTEDADPYVQPEDENYENDSVRQLENELQMEEYLKQKLQDEAYQVSLQG
Regarding B1, the binding result in experiment [4] and in experiment [5] was “no binding” in each case.
